Measured values reported in paper PMC6677759.
The exact form of at least one protein or probe is not confirmed. At least one verdict was read from the data and is not stated in words by the source. Protein sequences can lack the tags named with them.

Target: T1, NtCRF2 LHRI-VHIID-LHRII (Nicotiana tabacum (cv. Petite Havana SR1)) (UniProt A0A1U7XHE4)
T1 sequence (looked up): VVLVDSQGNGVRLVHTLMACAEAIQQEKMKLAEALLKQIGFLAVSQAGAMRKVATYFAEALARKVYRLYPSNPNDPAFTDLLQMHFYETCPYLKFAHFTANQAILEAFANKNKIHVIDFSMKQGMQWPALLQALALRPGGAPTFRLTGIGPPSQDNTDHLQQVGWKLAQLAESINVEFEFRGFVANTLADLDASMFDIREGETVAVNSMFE
Test: EMSA
Settings: EMSA: 20 ul, 1x LightShift binding buffer, 1 ug poly(dI-dC), 2.5% glycerol, 0.05% NP-40, 50 mM KCl, 5 mM MgCl2, 20 fmol probe, 1-4 ug protein, 20 min at 25 C; recombinant protein; residues 207-417; label: 5' biotin

Q: Does “ACTATAATTCTTTGCTTACTCTCTAAATTTCCGGCCTTGATTTTGGGAAGTGTTT (double strand) [M3]” bind?
A: Result: binds
